# Literature values in patent US20140050677A1, “Personal care and medicinal products incorporating bound organosulfur groups” (priority 2006, published 2014).
# For some assays here: At least one read-out could not be matched to a standard name with certainty. For some assays here: For at least one compound, name, drawing or mass did not settle the structure.
# What was measured:
# [1] = allicin 8 mg/kg, final 2 weeks of 5 week high fructose diet, rats; cited from earlier work
# [2] = allicin 8 mg/kg during final 2 weeks, end of 5 weeks high fructose diet, rats; cited from earlier work
# [3] = cited from earlier work
compound,measurement,setting,value
"C=CCS[S+]([O-])CC=C (centres unmarked) [Allicin, DiAllylThioSulfinate]",loss in weight,[1],3%
same,percentage increase in blood pressure,[2],+5.2%
same,percentage increase in insulin,[2],+62%
same,percentage increase in triglycerides,[2],+6.8%
same,permeability of biological membranes,[3],extremely high permeability
